Laboratory results reported in patent US20230242544A1, “QUINAZOLINE COMPOUNDS, PREPARATION METHODS AND USES THEREOF” (INVENTISBIO CO., LTD., priority 2020, published 2023).
Read-outs that look alike come from different tables or passages of the source. The structures given here were assigned with low confidence; some may be wrong.

Amino acid sequences for entries named in this document (tags omitted). Residues count along the entry.
UniProt P01116, whole entry G12D: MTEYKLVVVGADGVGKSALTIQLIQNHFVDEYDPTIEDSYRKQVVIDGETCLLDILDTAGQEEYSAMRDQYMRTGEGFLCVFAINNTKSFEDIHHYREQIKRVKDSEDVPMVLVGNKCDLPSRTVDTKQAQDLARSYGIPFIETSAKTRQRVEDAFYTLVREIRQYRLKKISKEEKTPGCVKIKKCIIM
UniProt P01116, 1-188 isoform 2 G12D: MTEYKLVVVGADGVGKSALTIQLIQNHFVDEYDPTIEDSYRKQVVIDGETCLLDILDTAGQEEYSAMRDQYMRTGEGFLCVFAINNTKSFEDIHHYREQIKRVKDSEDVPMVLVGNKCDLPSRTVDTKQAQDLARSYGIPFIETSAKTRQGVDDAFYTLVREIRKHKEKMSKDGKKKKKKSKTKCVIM

Columns and labels:
Ba/F3_KRAS^G12D cells = Ba/F3_KRAS^G12D cells (Homo sapiens, UniProt P01116, G12D, cells depend on it); assay: Ba/F3 KRAS G12D cell proliferation assay (CellTiter-Glo)
[1] = biological target: recombinant human KRAS^G12D protein (Homo sapiens, UniProt P01116, G12D); assay: Temperature-dependent Fluorescence (TdF) KRAS G12D protein binding assay; details: read-out: TdF Kd, 6 μM KRAS^G12D protein, 10 μM compound, Sypro Orange, Kd calculated from the fluorescent shift
[2] = read-out: BaF3_KRAS^G12D IC50, treated for 3 days, cell-titer Glo, cell growth inhibition, tested form: 3TFA
[3] = read-out: BaF3_KRAS^G12D IC50, treated for 3 days, cell-titer Glo, cell growth inhibition

`C#Cc1c(F)ccc2cc(O)cc(-c3c(F)cc4c(N5CC6CCC(C5)N6)nc(OC[C@@]56CCCN5C[C@H](F)C6)nc4c3F)c12` was tested, and the GI50 (Ba/F3_KRAS^G12D cells; [2]) was < 500 nM and the Kd ([1]; tested form: 3TFA) was < 500 nM.

For `CCc1c(F)ccc2cc(O)cc(-c3c(C#N)cc4c(N5CC6CCC(C5)N6)nc(OC[C@@]56CCCN5C[C@H](F)C6)nc4c3F)c12` (single isomer, unassigned), the GI50 (Ba/F3_KRAS^G12D cells; [2]) was < 500 nM.

In the case of `CN1CCC[C@H]1COc1nc(N2CCNC3CC32)c2cc(Cl)c(-c3cc(O)cc4cccc(Cl)c34)c(F)c2n1` (some centres unmarked), the GI50 (Ba/F3_KRAS^G12D cells; [3]) is reported as 500 to 5000 nM and the Kd [1] is reported as 500 to 5000 nM.

In the case of `CN1CCC[C@H]1COc1nc(N2C[C@H]3C[C@@H]2CN3)c2cc(Cl)c(-c3cc(O)cc4cccc(Cl)c34)c(F)c2n1`, the GI50 (Ba/F3_KRAS^G12D cells; read-out: BaF3_KRAS^G12D IC50, treated for 3 days, cell-titer Glo, cell growth inhibition, tested form: 0.36 formate) is reported as 500 to 5000 nM and the Kd ([1]; tested form: 0.36 formate) is reported as > 5000 nM.

Compound `N#Cc1cc2c(N3CC4CCC(C3)N4)nc(OC[C@@]34CCCN3C[C@H](F)C4)nc2c(F)c1-c1c(C(F)(F)F)ccc2[nH]ncc12` (relative stereo) has a GI50 (Ba/F3_KRAS^G12D cells; [3]) of 500 to 5000 nM and a Kd [1] of 500 to 5000 nM.

`CN1CCC[C@H]1COc1nc(N2C[C@@H]3C[C@H]2CN3)c2cc(Cl)c(-c3cc(O)cc4cccc(Cl)c34)c(F)c2n1` was tested, and the GI50 (Ba/F3_KRAS^G12D cells; read-out: BaF3_KRAS^G12D IC50, treated for 3 days, cell-titer Glo, cell growth inhibition, tested form: 0.74 formate) was 500 to 5000 nM and the Kd ([1]; tested form: 0.74 formate) was > 5000 nM.
